The nature of this test: qHTS Assay for Lipid Storage Modulators in Drosophila S3 Cells.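 On cell number change: cells counted by Cell Tracker Red CMTPX staining in the red channel.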 The conditions noted are these: BODIPY lipid droplet fluorescence, 18-24 h; for cell number change: measured here: cell count max response, cells fed with added oleic acid. Put shortly: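 Laser-scanning cytometry quantifies lipid droplet accumulation (500–530 nm total intensity; droplet/cell object ratio) in oleic acid-fed (400 uM added) Drosophila S3 cells treated with a concentration series. 20 uM Triacsin C defined 100% inhibition.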
On the technique in general: In qHTS, concentration-response curves come from the screen itself.

The mark [1] stands for this setting: measured here: lipid fluorescence (Fed channel) AC50, cells fed with added oleic acid.
Where [2] appears, read: measured here: cell number channel AC50, cells fed with added oleic acid.

This is one part of the list. Further columns of the screen follow, without active or inactive calls. Compounds called inactive in the main read-out are mostly missing here. Potencies come from curve fits of mixed quality, noted in brackets.

The term AC50 denotes the midpoint of the concentration-response curve, whichever way the signal moves. A low value points to activity at low concentration.

Take `Cc1c(C(=O)N2CCCCCC2)oc2ccccc12`: the cell number change came out at 0.0661%. Consider `Cc1ccccc1Nc1c(-c2cccnc2)nc2ccccn12`, for which the cell number change stood at 26.8%. Moreover, the AC50 under setting [1] is 5.17 µM [rising, single point].

Consider `CC(=O)NS(=O)(=O)c1ccc(NC(=O)c2ccc3c(c2)C(=O)N(CCC(C)C)C3=O)cc1`, for which the cell number change amounted to 61.4%. Also, under setting [2], the half-maximal activity concentration (AC50) was 23.1 µM [rising, single point]. On to `CC(C)(C)OC(=O)N1CCN(C(=O)[C@H](Cc2ccc(O)cc2)n2cc(CCO)nn2)CC1`, for which the cell number change is -11.7%. Take `O=C1c2cccnc2C(=O)N1Cc1cccs1`: the concentration at half-maximal activity (AC50) under setting [1] is 0.116 µM [rising, single point]. Regarding `C/C(=N\NC(=O)C1CC1)c1ccc(C)c(C)c1`, the cell number change is 0.289%. For `CCOC(=O)C1=C(C)NC2=C(C(=O)CC(C)(C)C2)C1c1cccc(C)n1` (stereo unspecified), the cell number change is -54.1%. Besides, the AC50 under setting [2] was 29.1 µM [falling, single point].

With `CC1CCCN(Cc2nc3c(c(=O)n(C)c(=O)n3C)n2CC(N)=O)C1` (stereo unspecified), the cell number change was -13.1%. Also, the AC50 under setting [1] was 29.1 µM [rising, single point]. `COc1ccc(-c2csc3ncnc(N4CCN(c5ccccc5OC)CC4)c23)cc1`: the cell number change was -15.2%. Also, the AC50 under setting [1] was 7.31 µM [rising, partial curve]. On to `COCCn1c(=O)sc2ccccc2c1=O`, for which the cell number change came to 80.7%. The AC50 under setting [2] was 20.6 µM [rising, single point]. Further, the AC50 under setting [1] was 29.1 µM [rising, partial curve, poor fit]. `CCCCCCCCNC(C)C(O)c1ccc(SC(C)C)cc1` (stereo unspecified): the cell number change was -83.6%. In addition, the concentration at half-maximal activity (AC50) under setting [2] was 18.4 µM [falling, single point]. Moreover, under setting [1], the concentration at half-maximal activity (AC50) is 25.9 µM [falling, partial curve]. Consider `Nc1ccc(Cc2nc3cc4ccccc4cc3[nH]2)cc1`, for which the cell number change was determined as 31.8%. Further, the AC50 under setting [2] was 8.2 µM [rising, partial curve, poor fit]. With `CCC(=O)Oc1ccc2c(C)cc(=O)oc2c1C(=O)c1ccccc1`, the cell number change turned out to be 5.64%. Further, the AC50 under setting [1] was 0.116 µM [rising, full curve, poor fit]. For `O=C(NCCSc1ncc(-c2ccccc2)[nH]1)c1ccco1`, the half-maximal activity concentration (AC50) under setting [1] was 2.31 µM [rising, partial curve, poor fit]. Consider `O=C(NCC1CCCN1S(=O)(=O)c1cccs1)c1ccccc1` (stereo unspecified), for which the concentration at half-maximal activity (AC50) under setting [1] is 0.651 µM [falling, single point]. Take `O=C(O)c1sccc1NC(=O)c1c(Cl)cccc1Cl`: the cell number change is 13.5%. The half-maximal activity concentration (AC50) under setting [1] was 0.58 µM [rising, single point]. For the compound `Cc1cc(C)cc(NC(=O)C(NCCN2CCOCC2)c2ccccc2)c1` (stereo unspecified), the cell number change turned out to be 67.5%. The half-maximal activity concentration (AC50) under setting [2] is 13 µM [rising, partial curve]. For `CNS(=O)(=O)c1ccc2c3c(cccc13)C(=O)N2`, the cell number change is -5.96%. `COc1ccc(C(=O)OCC(=O)NCC2CCCCC2)c(OC)c1`: the cell number change turned out to be 41.5%. Further, under setting [2], the half-maximal activity concentration (AC50) was 7.31 µM [rising, partial curve, poor fit]. Consider `CCOc1ccc(Nc2nc(N)nc(CN3CCN(c4ccccc4F)CC3)n2)cc1`, for which the cell number change stood at 16%. In addition, the half-maximal activity concentration (AC50) under setting [2] was 6.51 µM [rising, single point]. Further, the AC50 under setting [1] is 25.9 µM [rising, single point].

Turning to `CC(CN1CCOCC1)OC(=O)c1ccc2c(c1)OCCO2` (stereo unspecified), the cell number change is 3.56%. Also, the half-maximal activity concentration (AC50) under setting [1] is 23.1 µM [falling, single point]. `Cc1ccc(Nc2nc(N)nc(CN3CCN(C)CC3)n2)cc1`: under setting [1], the AC50 is 23.1 µM [falling, partial curve]. On to `Cc1ccc(-n2nnc3c(=O)n(CC(=O)N4CCC(C)CC4)cnc32)cc1`, for which the cell number change was -23.7%. Also, the AC50 under setting [1] is 20.6 µM [falling, partial curve].

For `O=C1COc2ccc(C(=O)COc3ccc(Cl)cc3Br)cc2N1`, under setting [1], the half-maximal activity concentration (AC50) was 1.64 µM [rising, partial curve, poor fit]. As to `COc1ccc2c(CC(=O)N3CCc4cc(OC)c(OC)cc4C3)coc2c1`, the cell number change was -18.1%.

Consider `COc1cc(NC(=O)Cc2ccccc2)ccc1NC(=O)c1ccccc1`, for which the AC50 under setting [1] is 20.6 µM [falling, partial curve].

`COc1ccc2oc(C(=O)OCC(=O)NC3CC3)c(C)c2c1`: the cell number change came to 5.73%. For the same compound, under setting [1], the AC50 was 2.31 µM [rising, single point].

As to `O=c1[nH][nH]c(-c2ccccc2)c1C=Nc1ccccc1`, the cell number change is -13.8%. With `CCC(CC)=C(C#N)C(=O)NC1CCCCC1`, the cell number change was determined as 9.13%. Besides, the half-maximal activity concentration (AC50) under setting [1] was 0.82 µM [rising, full curve, poor fit]. `COC(=O)CN1C(=S)N(c2ccc(OC)cc2)C(=O)/C1=C/c1ccc(N2CCOCC2)cc1`: the cell number change was -4.99%. For the same compound, the half-maximal activity concentration (AC50) under setting [1] was 35.5 µM [falling, single point]. As for `Cc1ncc(CO)c(/C=N/NC(=S)Nc2cccc(Cl)c2)c1O`, the cell number change turned out to be 5.23%. Take `COc1ccc(C(C)=O)cc1CN1C(=O)C(C)N(c2ccc(C)cc2)C1=O` (stereo unspecified): the cell number change stood at 29.4%. Besides, the AC50 under setting [2] is 2.59 µM [rising, full curve, poor fit]. Further, the AC50 under setting [1] was 0.291 µM [rising, full curve, poor fit]. `N#Cc1cccc(NC(=O)C2SC(=Nc3ccccc3)C(C(=O)N3CCOCC3)=C2N)c1` (stereo unspecified): the cell number change was -34.9%. Further, under setting [2], the concentration at half-maximal activity (AC50) was 0.58 µM [rising, single point]. The half-maximal activity concentration (AC50) under setting [1] is 25.9 µM [falling, single point]. On to `Cc1ccc(CN2C3CCCC2CC(NC(=O)c2ccc(F)cc2)C3)cc1` (stereo unspecified), for which the cell number change was -3.15%. For the compound `CCOC(=O)c1[nH]c(C)c(C(=O)OCC(=O)N2c3ccccc3CC2C)c1C` (stereo unspecified), the cell number change is -33.5%. The AC50 under setting [2] was 0.184 µM [falling, full curve, poor fit]. Take `Cc1ccc(S(=O)(=O)N2CCCC2C(=O)Oc2ccccc2)cc1` (stereo unspecified): the cell number change is -23.8%. Under setting [2], the AC50 was 0.92 µM [falling, full curve, poor fit]. Moreover, the half-maximal activity concentration (AC50) under setting [1] was 29.1 µM [falling, single point]. `Cc1ccc(C)c(-c2csc(NC(=O)c3c(C)noc3C)n2)c1`: the cell number change stood at 4.51%. Besides, the AC50 under setting [1] was 2.91 µM [falling, partial curve, poor fit]. As for `C=CCN1C(c2ccc(OCC)cc2)=CS/C1=C(\C#N)c1nnc2n1CCCCC2`, the concentration at half-maximal activity (AC50) was 0.651 µM [rising, full curve] under setting [2] and 1.16 µM [rising, full curve] under setting [1].

Take `Cc1cc(NC(=O)Cn2nnc3sc4c(c3c2=O)CCC(C(C)(C)C)C4)no1` (stereo unspecified): the cell number change was -27.2%.

Take `Cc1nn(CC(=O)Nc2ccc3c(c2)nc(CCN2CCCCC2)n3C)c(=O)c2ccccc12`: the cell number change is -32.2%. The AC50 under setting [1] is 29.1 µM [falling, single point].
